Where a chain is given by its changes, count along the chain named. Names and notes keep the numbering of the source. Results are given in words; binding and its absence hold for the method and conditions named. Binding seen in cells or lysates may run through a third protein. Some results given as binding are weak or reduced against the parent protein; the word gives no strength. Where a sequence is shown, tags or fusion partners need not be part of it.
How the values were obtained:
Assay in all cases: co-IP; Flag-tagged WTAP 1-273 and His-tagged VIRMA 381-1486 co-expressed in HEK 293F cells; whole-cell extracts purified via anti-Flag beads, western blot against the tags
[1] = target: T1, Flag-tagged WTAP^1–273 (human) (UniProt Q15007)
T1 sequence: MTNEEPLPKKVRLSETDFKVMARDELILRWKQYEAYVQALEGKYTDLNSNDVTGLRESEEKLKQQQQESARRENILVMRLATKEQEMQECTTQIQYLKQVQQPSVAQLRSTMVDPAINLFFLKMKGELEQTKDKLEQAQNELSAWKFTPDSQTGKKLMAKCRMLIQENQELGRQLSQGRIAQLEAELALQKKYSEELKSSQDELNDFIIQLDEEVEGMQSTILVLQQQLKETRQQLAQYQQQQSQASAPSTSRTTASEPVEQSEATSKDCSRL

[2] = target: T2, Flag-tagged WTAP^1–273 E196A (human) (UniProt Q15007)
T2 sequence: T1 sequence with E196A

[3] = target: T3, Flag-tagged WTAP^1–273 E203A (human) (UniProt Q15007)
T3 sequence: T1 sequence with E203A

[4] = target: T4, Flag-tagged WTAP^1–273 E216A (human) (UniProt Q15007)
T4 sequence: T1 sequence with E216A

[5] = target: T5, Flag-tagged WTAP^1–273 N205A (human) (UniProt Q15007)
T5 sequence: T1 sequence with N205A

[6] = target: T6, Flag-tagged WTAP^1–273 Q177A (human) (UniProt Q15007)
T6 sequence: T1 sequence with Q177A

[7] = target: T7, Flag-tagged WTAP^1–273 Q182A (human) (UniProt Q15007)
T7 sequence: T1 sequence with Q182A

[8] = target: T8, Flag-tagged WTAP^1–273 Q192A (human) (UniProt Q15007)
T8 sequence: T1 sequence with K192A

B1: His-tagged VIRMA^381–1486 (domain or fragment, UniProt Q69YN4 381-1486)
chain: ASVKLTELLDLYREDRGAKWVTALEEIPSLIIKGLSYLQLKNTKQDSLGQLVDWTMQALNLQVALRQPIALNVRQLKAGTKLVSSLAECGAQGVTGLLQAGVISGLFELLFADHVSSSLKLNAFKALDSVISMTEGMEAFLRGRQNEKSGYQKLLELILLDQTVRVVTAGSAILQKCHFYEVLSEIKRLGDHLAEKTSSLPNHSEPDHDTDAGLERTNPEYENEVEASMDMDLLESSNISEGEIERLINLLEEVFHLMETAPHTMIQQPVKSFPTMARITGPPERDDPYPVLFRYLHSHHFLELVTLLLSIPVTSAHPGVLQATKDVLKFLAQSQKGLLFFMSEYEATNLLIRALCHFYDQDEEEGLQSDGVIDDAFALWLQDSTQTLQCITELFSHFQRCTASEETDHSDLLGTLHNLYLITFNPVGRSAVGHVFSLEKNLQSLITLMEYYSKEALGDSKSKKSVAYNYACILILVVVQSSSDVQMLEQHAASLLKLCKADENNAKLQELGKWLEPLKNLRFEINCIPNLIEYVKQNIDNLMTPEGVGLTTALRVLCNVACPPPPVEGQQKDLKWNLAVIQLFSAEGMDTFIRVLQKLNSILTQPWRLHVNMGTTLHRVTTISMARCTLTLLKTMLTELLRGGSFEFKDMRVPSALVTLHMLLCSIPLSGRLDSDEQKIQNDIIDILLTFTQGVNEKLTISEETLANNTWSLMLKEVLSSILKVPEGFFSGLILLSELLPLPLPMQTTQVIEPHDISVALNTRKLWSMHLHVQAKLLQEIVRSFSGTTCQPIQHMLRRICVQLCDLASPTALLIMRTVLDLIVEDLQSTSEDKEKQYTSQTTRLLALLDALASHKACKLAILHLINGTIKGDERYAEIFQDLLALVRSPGDSVIRQQCVEYVTSILQSLCDQDIALILPSSSEGSISELEQLSNSLPNKELMTSICDCLLATLANSESSYNCLLTCVRTMMFLAEHDYGLFHLKSSLRKNSSALHSLLKRVVSTFSKDTGELASSFLEFMRQILNSDTIGCCGDDNGLMEVEGAHTSRTMSINAAELKQLLQSKEESPENLFLELEKLVLEHSKDDDNLDSLLDSVVGLKQMLES
- binding [1]: binds
- binding [2]: binds
- binding [3]: binds
- binding [4]: binds
- binding [5]: binds
- binding [6]: binds
- binding [7]: binds
- binding [8]: binds

B2: His-tagged VIRMA^381–1486 N452A (domain or fragment, UniProt Q69YN4 381-1486)
chain: B1 chain with N72A
- binding [1]: binds

B3: His-tagged VIRMA^381–1486 T660A (domain or fragment, UniProt Q69YN4 381-1486)
chain: B1 chain with T280A
- binding [1]: binds

B4: His-tagged VIRMA^381–1486 N957A (domain or fragment, UniProt Q69YN4 381-1486)
chain: B1 chain with N577A
- binding [1]: binds

B5: His-tagged VIRMA^381–1486 S1025A (domain or fragment, UniProt Q69YN4 381-1486)
chain: B1 chain with S645A
- binding [1]: binds
